# Results: PMC6745501, “Plant photoreceptors and their signaling components compete for COP1 binding via VP peptide motifs” (The EMBO Journal, 2019)
# Amino acid sequences for entries named in this document (tags omitted). A change or cut given only in a name is not applied to a line headed by its entry.
# UniProt O24646: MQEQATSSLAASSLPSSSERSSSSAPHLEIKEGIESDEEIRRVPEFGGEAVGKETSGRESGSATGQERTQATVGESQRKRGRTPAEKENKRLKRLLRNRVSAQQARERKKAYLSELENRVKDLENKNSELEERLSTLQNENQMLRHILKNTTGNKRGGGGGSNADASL
# No constants are given. Whether binding was seen depends on the method and setting.
# T1: COP1^Trp467Ala WD40 domain (Arabidopsis) (UniProt P43254)
# T1 sequence: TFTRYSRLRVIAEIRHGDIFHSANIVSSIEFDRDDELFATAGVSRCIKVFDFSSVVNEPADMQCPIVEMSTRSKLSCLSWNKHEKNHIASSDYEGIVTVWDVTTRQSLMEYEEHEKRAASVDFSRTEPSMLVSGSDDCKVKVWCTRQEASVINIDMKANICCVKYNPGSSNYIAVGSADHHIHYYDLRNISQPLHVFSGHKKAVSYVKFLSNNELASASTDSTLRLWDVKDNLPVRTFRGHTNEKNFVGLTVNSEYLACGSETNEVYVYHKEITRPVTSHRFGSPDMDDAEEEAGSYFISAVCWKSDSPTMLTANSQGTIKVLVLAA
# Molecular target: T1, COP1^Trp467Ala WD40 domain (Arabidopsis)
# Test: condition: 1,600 μM peptide into 112 μM COP1^Trp467Ala; ITC; VP peptide (titrant, 500-3,000 μM) injected into COP1 WD40 in the cell at about 10-fold lower concentration; 150 mM NaCl, 20 mM HEPES 7.4, 2 mM BME; 25°C; one-site binding model; both purified
binder,measurement,value
"EIRRVPEFGG (peptide, UniProt O24646 39-48) [HY5^39–48 VP peptide]",binding,no binding
